# Measurements as given in patent US4874526A, “Treatment of water” (Ciba-Geigy Corporation, priority 1981, dated 1989).
# Experiment: Threshold test: effect on the activity of hydrolysed polymaleic anhydride (PMA) against calcium carbonate precipitation
# Format: physicochemical
# Conditions: 24 hours at 25° C.
compound,measurement,setting,value
CCCCCCCCCCCCCC[P+](CCCC)(CCCC)CCCC.[Cl-] [tri-n-butyl tetradecyl phosphonium chloride],effect on the activity of PMA (Threshold test),"compared with QA or QT, FIGS. 1-3",much less than the effect of QA or QT
same,effect of PMA in the Threshold test in presence of the compound,at some concentrations of PC,actually enhanced
